PubChem BioAssay (Tox21)
Inconclusive means that the source gave no clear call. Such entries were picked first, then a sample of the others. A potency beside an inconclusive call is a rough fit, not a confirmed value. The source made the active and inactive calls. Calls follow the shape of the full dose curve.
% is scaled to controls: 0 for no effect and ±100 for the full control effect; potency is read from the fitted curve at half-maximal effect.

Sequences of proteins named here, by UniProt entry; tags and fusion partners are left off. A change or cut given only in a name is not applied to a line headed by its entry.
UniProt P19793: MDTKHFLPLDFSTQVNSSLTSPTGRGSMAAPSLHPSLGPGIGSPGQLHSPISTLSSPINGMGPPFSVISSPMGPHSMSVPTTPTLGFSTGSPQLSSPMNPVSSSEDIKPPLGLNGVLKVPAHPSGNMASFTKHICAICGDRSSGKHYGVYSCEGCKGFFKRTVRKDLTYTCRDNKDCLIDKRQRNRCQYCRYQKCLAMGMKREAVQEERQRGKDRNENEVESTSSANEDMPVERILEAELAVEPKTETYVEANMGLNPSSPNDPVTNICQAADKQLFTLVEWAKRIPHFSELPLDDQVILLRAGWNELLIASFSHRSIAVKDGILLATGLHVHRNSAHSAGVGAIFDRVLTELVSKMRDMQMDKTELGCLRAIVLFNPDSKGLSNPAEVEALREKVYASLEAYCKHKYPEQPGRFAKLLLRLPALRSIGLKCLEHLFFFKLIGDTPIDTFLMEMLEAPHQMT

These compounds were tested against Retinoic acid receptor RXR-alpha (Homo sapiens) (UniProt P19793) (assay: qHTS assay to identify small molecule agonists of the RXR signaling pathway (AID 1159527; also: nearly all actives have a fitted effect of over 35% in size)). Conditions: HEK293T RXRa-UAS-bla, beta-lactamase ratio, 16 h; activation: at 76.8 µM (top of the series) unless noted.
Procedure, shortened: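 GeneBLAzer RXR-alpha-UAS-bla HEK 293T cells in medium with 2% charcoal-stripped FBS, pre-incubated 5 hr at 37 C, then exposed to compounds 16 hr. Beta-lactamase reporter read by FRET substrate, 2 hr room temperature, 460/530 nm emission.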
`CNCCCCOc1ccccc1Cc1ccccc1` was tested, and the Potency was inconclusive: 21.3 µM [inhibitor, partial curve, poor fit]. For `CCCCCCC(=O)OCC`, the Potency was inconclusive: 12.3 µM [activator, partial curve, poor fit]. In the case of `CCCCCC(N)=O`, the activation is reported as inconclusive: 33.3%. With `O=C(O)CC(C(=O)O)C(CC(=O)O)C(=O)O` (configuration not stated) the activation was inconclusive: 14.3%. For `O=C1CCCC1`, the Potency was “inactive”. With `N#C/C(=C1\SCC(c2ccccc2Cl)S1)n1ccnc1` (configuration not stated) the activation was inconclusive: 15.6% [at 35.3 µM]. In the case of `COC(C)(C)CC(C)=O`, the Potency is reported as “inactive”. In the case of `Cc1nn(C)c(Oc2ccccc2)c1/C=N/OCc1ccc(C(=O)OC(C)(C)C)cc1`, the Potency is reported as inconclusive: 27.5 µM [rising, partial curve, poor fit]. With `COC(=O)C(C)O` (configuration not stated) the Potency was active: 12.6 µM. `C=CC(=O)OCC[N+](C)(C)C` was tested, and the Potency was “inactive”. For `CSc1nnc(C(C)(C)C)c(=O)[nH]1`, the Potency was “inactive”. With `CCCCOC(=O)C(C)Oc1ccc(Oc2ccc(C(F)(F)F)cn2)cc1` (configuration not stated) the activation was inconclusive: -24.4%. For `CCCC1CCC(=O)O1` (configuration not stated), the activation was inconclusive: 16.1%. `CC[N+](C)(CC)CCOC(=O)C(O)(c1ccccc1)C1CCCCC1` (configuration not stated) was tested, and the Potency was “inactive”. With `C=COCCCCO` the Potency was “inactive”. For `NCc1ccccc1`, the Potency was inconclusive: 27.5 µM [activator, partial curve]. With `CC(N)C(=O)OC(C)(C)Cc1ccc(Cl)cc1` (configuration not stated) the Potency was “inactive”.
